These results are taken from publication PMC9531299.

No constants are given. Whether binding was seen depends on the method and setting. In cells and extracts the contact can be indirect. These calls come from enrichment with a bait or labelling near it, and not all partners need be listed. Tags and fused reporters may be left off the sequences shown.

The target in this experiment is T1, ADIPOR2‐HA (human (cDNA from HEK‐293T cells)) (UniProt Q86V24).
T1 sequence: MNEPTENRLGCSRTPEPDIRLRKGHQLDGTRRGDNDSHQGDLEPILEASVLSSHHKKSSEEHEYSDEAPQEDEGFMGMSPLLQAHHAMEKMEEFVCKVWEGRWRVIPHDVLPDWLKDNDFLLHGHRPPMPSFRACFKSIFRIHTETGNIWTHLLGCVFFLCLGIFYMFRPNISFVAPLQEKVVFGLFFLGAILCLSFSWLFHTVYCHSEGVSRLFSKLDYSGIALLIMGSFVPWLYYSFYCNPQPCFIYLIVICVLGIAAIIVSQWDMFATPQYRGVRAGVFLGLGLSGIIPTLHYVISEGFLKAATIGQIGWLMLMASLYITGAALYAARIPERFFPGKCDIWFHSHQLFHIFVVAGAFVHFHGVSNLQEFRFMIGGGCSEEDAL
As to the kind of experiment: affinity purification with mass spectrometry; ADIPOR2‐HA stably expressed in HEK‐293T cells, HA‐affinity purified, partners identified by tandem mass spectrometry; control: cells with empty vector.

B1: endogenous RNF145 (enzyme, UniProt Q96MT1 1-663)
chain: MAAKEKLEAVLNVALRVPSIMLLDVLYRWDVSSFFQQIQRSSLSNNPLFQYKYLALNMHYVGYILSVVLLTLPRQHLVQLYLYFLTALLLYAGHQISRDYVRSELEFAYEGPMYLEPLSMNRFTTALIGQLVVCTLCSCVMKTKQIWLFSAHMLPLLARLCLVPLETIVIINKFAMIFTGLEVLYFLGSNLLVPYNLAKSAYRELVQVVEVYGLLALGMSLWNQLVVPVLFMVFWLVLFALQIYSYFSTRDQPASRERLLFLFLTSIAECCSTPYSLLGLVFTVSFVALGVLTLCKFYLQGYRAFMNDPAMNRGMTEGVTLLILAVQTGLIELQVVHRAFLLSIILFIVVASILQSMLEIADPIVLALGASRDKSLWKHFRAVSLCLFLLVFPAYMAYMICQFFHMDFWLLIIISSSILTSLQVLGTLFIYVLFMVEEFRKEPVENMDDVIYYVNGTYRLLEFLVALCVVAYGVSETIFGEWTVMGSMIIFIHSYYNVWLRAQLGWKSFLLRRDAVNKIKSLPIATKEQLEKHNDICAICYQDMKSAVITPCSHFFHAGCLKKWLYVQETCPLCHCHLKNSSQLPGLGTEPVLQPHAGAEQNVMFQEGTEPPGQEHTPGTRIQEGSRDNNEYIARRPDNQEGAFDPKEYPHSAKDEAHPVESA
For B1, the binding entry is on record as “binds”.
